In patent publication US20210009713A1 (MIDWESTERN UNIVERSITY, published 2021) one finds binding data, which are given here for one molecule.

These are yes or no findings as the source states them, for the method shown. Some results given as binding are weak or reduced against the parent protein; the word gives no strength.

For experiment [1], the target named is T1, aspartyl (asparaginyl) β-hydroxylase (ASPH) (UniProt Q12797 75-758, limits assumed).
T1 construct: also called ASPH protein
T1 sequence (looked up): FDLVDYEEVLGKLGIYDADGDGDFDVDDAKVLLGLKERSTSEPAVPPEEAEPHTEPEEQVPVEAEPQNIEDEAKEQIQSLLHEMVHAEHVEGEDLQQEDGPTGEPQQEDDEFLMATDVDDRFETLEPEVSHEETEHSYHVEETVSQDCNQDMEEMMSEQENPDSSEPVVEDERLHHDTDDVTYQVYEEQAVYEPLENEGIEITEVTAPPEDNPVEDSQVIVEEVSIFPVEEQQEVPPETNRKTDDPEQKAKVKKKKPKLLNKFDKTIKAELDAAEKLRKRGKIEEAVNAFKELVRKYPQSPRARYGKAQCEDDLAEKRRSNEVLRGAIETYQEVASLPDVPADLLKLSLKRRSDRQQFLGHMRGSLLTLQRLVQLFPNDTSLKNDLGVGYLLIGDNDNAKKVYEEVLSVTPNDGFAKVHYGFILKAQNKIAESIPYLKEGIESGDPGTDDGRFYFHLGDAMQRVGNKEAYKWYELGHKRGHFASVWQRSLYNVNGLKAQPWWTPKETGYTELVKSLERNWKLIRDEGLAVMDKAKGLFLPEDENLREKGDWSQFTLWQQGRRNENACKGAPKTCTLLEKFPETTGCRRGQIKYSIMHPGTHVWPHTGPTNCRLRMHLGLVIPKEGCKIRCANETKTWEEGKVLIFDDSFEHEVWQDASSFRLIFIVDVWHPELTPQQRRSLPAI
Description: SPR, antibody captured via Protein G, ASPH as analyte. How it is done: The interaction between ASPH and a set of 6 antibodies were characterized by Essai Sciences LLC (Stillwater, Okla.) on a SensiQ Pioneer SPR Platform. The COOH2 sensor chip, which contains a planar dextran surface, was used for target immobilization. The buffer system was 10 mM HEPES, pH 7.4, 150 mM NaCl, and 0.01% Tween-20.
All channels of a COOH2 sensor chip were activated with a five-minute injection of 40 mM EDC and 10 mM NHS. Protein G was then injected across channels 1 and 2. 1 M ethanolamine, pH 8.0 was then injected across all three channels. Approximately 1000 response units of Protein G were captured on both channels 1 and 2 (FIG. 18). For each antibody-ASPH interaction, the antibody was injected on channel 1, leaving channels 2 and 3 as a Protein G reference and empty channel reference, respectively. After antibody capture, ASPH was injected at a single concentration. Following injection of ASPH, all three channels were injected with 10 mM NaOH for one minute to regenerate the Protein G surface. This was done twice for each antibody, at each tested concentration of ASPH.
A general note: Surface plasmon resonance follows binding to a sensor surface in real time, without labels.

For experiment [2], the target named is T1, aspartyl (asparaginyl) β-hydroxylase …. Description: SPR (SensiQ Pioneer), antibody captured via Protein G on a COOH2 chip, ASPH injected as analyte at 15.6-500 nM.

B1: 5H4/5K3 (antibody, V domains shown)
VH: QSLEESGGDLVKPGASLTLTCKASGFDFSSNAMCWVRQAPGKGPEWIACIDNGDGSTDYATWAKGRFTISKTSSTTVTLQMTSLTAADTATYFCTRNFNLWGQGTLVTVSS
VL: AQVLTQTASSVSAAVGGTVTISCQSSQSVYDNNRLAWFQQKPGQPPKLLIYETSKLASGVPLRFKGSGSGTQFTLTISDLECDDAATYYCLGSYSGYIYTFGGGTEVVVKG
notes: The entries are translated variable regions that still carry the leader and the start of the constant region (GQPK... / GDPV...)
Turning to B1, the binding entry in experiment [1] and in experiment [2] was “binds” in each case.
